Assay results as given in paper PMC9119628 (PLoS Pathogens, 2022).
Results are given in words; binding and its absence hold for the method and conditions named. Binding seen in cells or lysates may run through a third protein. Some binding calls cover weakened binding; strength is not graded here.

Amino acid sequences for entries named in this document (tags omitted). Residues count along the entry.
UniProt Q05318, residues 1-505: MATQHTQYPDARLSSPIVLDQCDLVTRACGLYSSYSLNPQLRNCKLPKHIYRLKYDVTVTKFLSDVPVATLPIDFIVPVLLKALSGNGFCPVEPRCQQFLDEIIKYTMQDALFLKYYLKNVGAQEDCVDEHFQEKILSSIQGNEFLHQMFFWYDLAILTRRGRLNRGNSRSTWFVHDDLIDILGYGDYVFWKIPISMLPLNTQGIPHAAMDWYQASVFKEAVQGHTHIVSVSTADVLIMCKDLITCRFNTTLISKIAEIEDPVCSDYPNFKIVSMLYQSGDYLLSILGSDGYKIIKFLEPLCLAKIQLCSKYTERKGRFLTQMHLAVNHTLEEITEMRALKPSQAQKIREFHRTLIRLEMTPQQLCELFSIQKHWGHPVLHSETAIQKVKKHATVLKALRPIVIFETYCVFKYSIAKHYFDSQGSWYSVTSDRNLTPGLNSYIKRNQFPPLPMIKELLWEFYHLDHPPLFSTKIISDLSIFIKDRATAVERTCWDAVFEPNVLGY
UniProt Q9C030: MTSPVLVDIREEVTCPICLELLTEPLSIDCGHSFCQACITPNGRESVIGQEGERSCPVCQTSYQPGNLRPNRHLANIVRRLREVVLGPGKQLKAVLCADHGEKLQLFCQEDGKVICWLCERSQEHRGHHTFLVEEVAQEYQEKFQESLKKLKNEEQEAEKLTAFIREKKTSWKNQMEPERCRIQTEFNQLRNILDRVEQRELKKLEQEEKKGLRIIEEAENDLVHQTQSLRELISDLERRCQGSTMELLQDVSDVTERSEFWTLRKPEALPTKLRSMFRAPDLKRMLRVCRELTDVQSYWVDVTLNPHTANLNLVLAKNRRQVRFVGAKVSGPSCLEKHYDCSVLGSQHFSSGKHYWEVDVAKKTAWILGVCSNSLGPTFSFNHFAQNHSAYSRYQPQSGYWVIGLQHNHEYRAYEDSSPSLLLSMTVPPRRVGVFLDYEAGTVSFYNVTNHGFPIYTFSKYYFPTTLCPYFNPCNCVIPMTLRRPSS
UniProt Q05127: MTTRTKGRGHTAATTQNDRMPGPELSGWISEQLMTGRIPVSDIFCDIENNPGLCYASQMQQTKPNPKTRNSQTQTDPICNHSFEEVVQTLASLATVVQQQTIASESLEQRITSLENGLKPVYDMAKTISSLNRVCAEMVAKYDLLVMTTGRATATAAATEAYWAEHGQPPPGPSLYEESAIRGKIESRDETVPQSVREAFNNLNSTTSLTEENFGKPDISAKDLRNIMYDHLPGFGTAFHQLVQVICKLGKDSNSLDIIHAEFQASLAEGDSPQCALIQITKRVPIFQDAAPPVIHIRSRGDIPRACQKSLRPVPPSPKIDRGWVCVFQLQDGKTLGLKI

Assays:
Assay in all cases: co-IP
[1] = biological target: HA-L_(1-505), HA-tagged N-terminal construct of EBOV L (Zaire ebolavirus (EBOV)) (UniProt Q05318)
[2] = biological target: HA-TRIM6 (UniProt Q9C030)
[3] = biological target: FLAG-tagged EBOV VP35 wild type (Zaire ebolavirus (EBOV)) (UniProt Q05127)

untagged EBOV VP35 wild type (from UniProt Q05127 1-340)
binding [1]: binds
binding [2]: binds

FLAG-tagged EBOV VP35 wild type (from UniProt Q05127 1-340)
binding [3]: binds

endogenous TRIM6 (from UniProt Q9C030 1-488) (enzyme)
binding [1]: binds
